# According to PubChem BioAssay AID1671190 (National Center for Advancing Translational Sciences (NCATS), 2021):
# The chains behind the UniProt entries cited, without tags or fusion partners. Where a name states a change or a piece, a line headed by the entry shows the natural chain unless it says otherwise.
# UniProt P18054: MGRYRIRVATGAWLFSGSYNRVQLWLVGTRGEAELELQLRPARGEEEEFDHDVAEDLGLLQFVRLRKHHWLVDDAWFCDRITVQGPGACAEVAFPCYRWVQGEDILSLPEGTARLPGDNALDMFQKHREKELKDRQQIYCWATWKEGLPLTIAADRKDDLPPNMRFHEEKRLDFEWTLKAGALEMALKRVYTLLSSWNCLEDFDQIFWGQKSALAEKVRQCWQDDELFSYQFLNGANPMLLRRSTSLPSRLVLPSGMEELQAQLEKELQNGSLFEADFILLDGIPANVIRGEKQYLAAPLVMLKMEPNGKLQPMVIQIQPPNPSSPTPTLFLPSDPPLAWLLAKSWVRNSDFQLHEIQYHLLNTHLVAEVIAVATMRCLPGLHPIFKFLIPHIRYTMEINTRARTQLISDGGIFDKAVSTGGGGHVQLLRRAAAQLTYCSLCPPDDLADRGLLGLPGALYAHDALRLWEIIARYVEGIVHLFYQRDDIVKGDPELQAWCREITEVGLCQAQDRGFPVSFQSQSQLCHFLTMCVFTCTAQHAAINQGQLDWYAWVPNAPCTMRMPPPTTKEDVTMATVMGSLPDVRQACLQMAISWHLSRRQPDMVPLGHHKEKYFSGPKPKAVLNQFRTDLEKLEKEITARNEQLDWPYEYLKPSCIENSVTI
# Hit rate of the full screen: of about 580,000 compounds, about 6,100 (1.1%) were called active. The shares of active, inactive and inconclusive entries below differ from those in the screen. The call rests on the fitted dose curve; in most records, active means well fitted inhibition curve with a large enough effect; inconclusive means small, poorly fitted or top-dose-only effect, or another doubt; inactive means no such curve, though single readings can be large or run the other way. A potency beside an inconclusive call is a rough fit, not a confirmed value.
# Target: Polyunsaturated fatty acid lipoxygenase ALOX12 (Homo sapiens) (UniProt P18054)
# Test: Primary qHTS assay for inhibitors of human arachidonate 12S-lipoxygenase (ALOX12): Round 2
# Details: purified 12hLO, xylenol orange hydroperoxide absorbance; activity change, negative = inhibition: at 108 µM (top of the series) unless noted
# Method in brief: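 Purified human 12hLO (150 nM final) in 25 mM Hepes, 0.01% Triton X-100, pH 7.0 was preincubated 15 min at room temperature with compound. Then 40 uM arachidonic acid was added, 30 min. Hydroperoxide was read by Fe-XO absorbance ratio 573/405 nm.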
# On the % scale 0 is the no-effect control and ±100 the full control effect; potency means the concentration at half of the fitted maximal effect.
SMILES,"activity change, negative = inhibition",Potency
Cn1c(=O)c2nnn(/N=C(\c3ccccc3)C3CC3)c2n(C)c1=O,inconclusive: -37.4% [inhibitor],
Cn1c(SCC(=O)NC2CCCCCC2)nnc1-c1ccc(Cl)cc1,,inactive
Cc1cccc(NC(=O)Cn2c(=O)n(Cc3ccccc3)c(=O)c3oc4ccccc4c32)c1C,,inactive
CC(=O)Nc1cccc(C(C)NC(=O)Nc2cccc(Cl)c2Cl)c1 (stereo not drawn),,"inconclusive: 50.1 µM [inhibitor, single point]"
Cc1c(C(=O)N2CCCC2)sc2ncnc(NCCc3ccccn3)c12,,inactive
COc1cc(C2C(C(=O)OC(C)C)=C(C)Nc3nc4ccccc4n32)cc(OC)c1O (stereo not drawn),,inactive
c1coc(-c2ccccc2CN2CCOc3ccc(CN4CCOCC4)cc3C2)c1,,"inconclusive: 126 µM [inhibitor, single point]"
CC(SCCc1ccccn1)C(=O)O (stereo not drawn),,"inconclusive: 31.6 µM [inhibitor, partial curve, poor fit]"
O=C(NCc1ccccc1Cl)C1CCN(c2ncnc3nc[nH]c23)CC1,,inactive
Cc1ccc(C(=O)C2=C(O)C(=O)N(Cc3ccco3)C2c2cccc(Br)c2)o1 (stereo not drawn),,"inconclusive: 35.5 µM [inhibitor, partial curve, poor fit]"
COc1ccc(/C=C/C(=O)NCCCc2ccccc2)cc1OC,,inactive
CCOC(=O)N1CCC(N2Cc3cccc(C(=O)NCc4ccc(C)cc4)c3C2=O)CC1,,inactive
O=C1Nc2ccccc2CN(Cc2ccc(F)cc2)C12CCNCC2,,"inconclusive: 10 µM [inhibitor, full curve, poor fit]"
Cc1nc(-c2c3n(c(=O)n(CC(=O)Nc4ccc(F)c(Cl)c4)c2=O)CCCCC3)no1,,inactive
COc1ccccc1CC(=O)N1CCC2(CC1)NC(=O)N(c1ccccc1)N2,,"inconclusive: 1.41 µM [inhibitor, full curve, poor fit]"
CN1CCN(C(=O)c2cc(-c3ccccn3)nc3ccccc23)CC1,,inactive
Cc1ccc(C2=NN(C(=O)c3ccco3)C(c3ccc4nccnc4c3)C2)cc1 (stereo not drawn),,"inconclusive: 39.8 µM [inhibitor, partial curve, poor fit]"
O=C(Nc1ccc2c(N3CCCCC3)ncnc2c1)c1cc(F)cc(F)c1,,inactive
O=C1/C(=C/c2ccc(Cl)cc2Cl)C(c2ccccc2)Oc2ccccc21 (stereo not drawn),,inactive
COn1c(=S)[nH]c2ccccc2c1=O,,"inconclusive: 39.8 µM [inhibitor, partial curve, poor fit]"
COc1cccc(-n2c(=O)c3c(C)c(C)sc3n(Cc3ccccc3C#N)c2=O)c1,,"inconclusive: 112 µM [inhibitor, single point]"
O=C(Cc1ccc(F)cc1)N[C@@H]1c2ccccc2CC[C@@H]1O,,"inconclusive: 25.1 µM [inhibitor, single point]"
Cn1c(=O)c2c(-c3ccccc3)n(-c3ccccc3Br)cc2n(C)c1=O,,inactive
Cc1ccccc1-c1ccc2ncnc(-n3ccnc3)c2c1,,"inconclusive: 17.8 µM [inhibitor, partial curve, poor fit]"
CCOC(=O)c1cnc2c(Cl)c(Cl)ccc2c1NCCOC(=O)c1cccnc1,,"inconclusive: 112 µM [inhibitor, partial curve, poor fit]"

SMILES,"activity change, negative = inhibition",Potency
O=C(Nc1ccc(Cl)cc1)C1CC(=O)N(c2n[nH]c3cccc(F)c23)C1 (stereo not drawn),,inactive
COc1ccc(/C=C/CN2CCC(n3nccc3NC(=O)C3CC3)CC2)cc1,,active: 25.1 µM
CCC1C/C(=C/c2cccs2)C(=O)/C(=C/c2cccs2)C1 (stereo not drawn),,"inconclusive: 39.8 µM [inhibitor, partial curve, poor fit]"
O=C(O)C12C3CCC(O3)C1(C(=O)O)C1CCC2O1 (stereo not drawn),,"inconclusive: 44.7 µM [inhibitor, partial curve, poor fit]"
CC(C)c1ccc(/C=C(/C#N)C(=O)Nc2ccc(N3CCOCC3)cc2)cc1,,"inconclusive: 39.8 µM [inhibitor, partial curve, poor fit]"
S=C1NC2(CCCCC2)NN1c1ccccc1,,"inconclusive: 0.631 µM [inhibitor, full curve, poor fit]"
COc1ccc(-c2nc3sc(CCNC(=O)C(=O)Nc4ccccc4C#N)c(C)n3n2)cc1,,"inconclusive: 112 µM [inhibitor, partial curve, poor fit]"
O=C(Nc1cc(S(=O)(=O)N2CCOCC2)ccc1N1CCOCC1)c1ccccc1Cl,,inactive
CCOC(=O)CSc1nc2c(c(=O)[nH]c(=O)n2C)n1Cc1ccc(Cl)cc1,,"inconclusive: 50.1 µM [inhibitor, partial curve, poor fit]"
Cc1cc(NC(c2ccc(Cl)cc2)c2ccc3cccnc3c2O)no1 (stereo not drawn),,"inconclusive: 17.8 µM [inhibitor, partial curve, poor fit]"
CCOC(=O)c1sc(C)c2c1NC1(CCCCC1)NC2=O,,inactive
O=C(OCCc1ccccc1)c1cc(O)c(O)c(O)c1,,active: 2.82 µM
O=C(Cc1n[nH]c(=O)c2ccccc12)NCC(=O)N1CCN(c2ccccc2)CC1,,active: 11.2 µM
Cc1nn(C(=O)CCC(=O)NCc2ccc(OC(C)C)cc2)c2ccccc12,,inactive
CC(NC(=O)C(=O)Nc1nccs1)c1ccccc1 (stereo not drawn),,"inconclusive: 5.01 µM [inhibitor, partial curve, poor fit]"
O=C(Nc1ccc(-n2cccn2)c(F)c1)C1CCN(C(=O)c2cccs2)CC1,,inactive
Cc1nc(SCCc2nc3ccccc3[nH]2)c2oc3ccccc3c2n1,,active: 14.1 µM
Cc1sc2nc(CN3CCOCC3)nc(NS(=O)(=O)c3ccccc3)c2c1C,,"inconclusive: 39.8 µM [inhibitor, partial curve, poor fit]"
COc1ccc(S(=O)(=O)NC2CC2)cc1Br,,"inconclusive: 31.6 µM [inhibitor, partial curve, poor fit]"
COc1ccc(-c2noc(C(=O)O)c2[C@@H](C)NC(=O)C2CCCC2)cc1,,"inconclusive: 5.62 µM [inhibitor, full curve, poor fit]"
O=C1CCN(Cc2ccccc2)C=C1c1ccc2ccccc2c1,,inactive
O=S(=O)(N/N=C/c1ccc2c(c1)OCO2)c1ccc(Br)cc1,,"inconclusive: 89.1 µM [inhibitor, partial curve, poor fit]"
Fc1ccccc1-c1nnc(SCc2cccc3ccccc23)n1C1CC1,,inactive
CC(C)c1ccc(NC(=O)c2ccc(=O)n(Cc3ccccc3)c2)cc1,,"inconclusive: 50.1 µM [inhibitor, partial curve, poor fit]"
COc1ccccc1NC(=O)CSc1nnc(C)n1-n1cccc1,,inactive

SMILES,"activity change, negative = inhibition",Potency
CSC(C)C(=O)Nc1ccc(I)cc1 (stereo not drawn),,"inconclusive: 44.7 µM [inhibitor, partial curve, poor fit]"
CCOC(=O)C(NCc1ccccn1)(NC(=O)c1cccnc1)C(F)(F)F (stereo not drawn),,inactive
CN(C)C(=O)c1ccccc1Sc1cc(Cl)ccc1Cl,,"inconclusive: 28.2 µM [inhibitor, single point]"
CN(CCCC(=O)O)c1ccc(N=Nc2ccc([N+](=O)[O-])cc2)cc1,,inactive
O=C(Cc1ccc(F)cc1)N1CCCC(c2nn(-c3ccc(Cl)cc3)c(=O)[nH]2)C1 (stereo not drawn),,"inconclusive: 44.7 µM [inhibitor, partial curve]"
CCOC(=O)c1nn(-c2ccc3c(c2)OCCO3)cc1O,,inactive
Cc1cc(NC(=O)c2ccc([N+](=O)[O-])o2)cc(-c2nc3ccccc3o2)c1O,,inactive
CN1CCCC1CCNc1nccc(-c2cnn(-c3ccc(F)cc3)c2)n1 (stereo not drawn),,inactive
CCOc1ccccc1NC(=O)c1ncoc1-c1ccc(C)o1,,"inconclusive: 44.7 µM [inhibitor, partial curve, poor fit]"
Cc1ccccc1CN(C)C(C)C(=O)NCc1cccs1 (stereo not drawn),,inactive
Cc1ccc(S(=O)(=O)NCCC(=O)Nc2ccc(Cl)c(Cl)c2)cc1,,"inconclusive: 56.2 µM [inhibitor, partial curve, poor fit]"
CCc1nc(SCC(=O)Nc2ccc(N(C)C)cc2)n[nH]1,,"inconclusive: 39.8 µM [inhibitor, partial curve]"
COC(=O)[C@H](Cc1ccccc1)NC(=O)Nc1ccc2oc(-c3cccnc3)nc2c1,,"inconclusive: 44.7 µM [inhibitor, partial curve, poor fit]"
CN(CC(=O)Nc1cccc(F)c1)C(=O)Cc1csc(-c2cccc(Br)c2)n1,,"inconclusive: 50.1 µM [inhibitor, partial curve, poor fit]"
N/C(=N\OC(=O)N1c2ccccc2Sc2ccccc21)c1ccc(Br)cc1,,"inconclusive: 44.7 µM [inhibitor, partial curve, poor fit]"
CN1C=CC2=C(C#N)C(N)C(C#N)(C#N)[C@H](c3ccccc3)[C@H]2C1 (stereo partly drawn),,inactive
CC(=O)c1cccc(NC(=O)c2cc3ccccn3n2)c1,,inactive
O=C(Nc1nc2cc3c(cc2s1)OCCO3)C1CCCCC1,,"inconclusive: 89.1 µM [inhibitor, single point]"
COc1ccc(CNc2ncc(-c3ccc(F)cc3)n2C)c2ccccc12,,"inconclusive: 0.708 µM [inhibitor, full curve, poor fit]"
Cc1cccc(OCCCC(=O)NNC(=O)c2ccccn2)c1,,inactive
CC(=NNC(=S)N1CC2CCC(CC2)C1)c1cnccn1,,"inconclusive: 89.1 µM [inhibitor, partial curve, poor fit]"
Cc1cccc(C(=O)N2CCN(c3oc(-c4ccco4)nc3C#N)CC2)c1,,inactive
Cc1ccc(C(=O)N2CCCCCCNC(=O)[C@@H]3CCC[C@@H]32)s1,,inactive

# Rewritten tab-delimited: entries from further up.
SMILES	activity change, negative = inhibition	Potency
Cc1ccccc1CN(C)C(C)C(=O)NCc1cccs1 (stereo not drawn)		inactive
Cc1ccc(S(=O)(=O)NCCC(=O)Nc2ccc(Cl)c(Cl)c2)cc1		inconclusive: 56.2 µM [inhibitor, partial curve, poor fit]
CCc1nc(SCC(=O)Nc2ccc(N(C)C)cc2)n[nH]1		inconclusive: 39.8 µM [inhibitor, partial curve]
